# Reference: PubChem BioAssay AID651768 (National Center for Advancing Translational Sciences (NCATS), 2012)
# The chains behind the UniProt entries cited, without tags or fusion partners.
# UniProt Q14191, whole entry, looked up: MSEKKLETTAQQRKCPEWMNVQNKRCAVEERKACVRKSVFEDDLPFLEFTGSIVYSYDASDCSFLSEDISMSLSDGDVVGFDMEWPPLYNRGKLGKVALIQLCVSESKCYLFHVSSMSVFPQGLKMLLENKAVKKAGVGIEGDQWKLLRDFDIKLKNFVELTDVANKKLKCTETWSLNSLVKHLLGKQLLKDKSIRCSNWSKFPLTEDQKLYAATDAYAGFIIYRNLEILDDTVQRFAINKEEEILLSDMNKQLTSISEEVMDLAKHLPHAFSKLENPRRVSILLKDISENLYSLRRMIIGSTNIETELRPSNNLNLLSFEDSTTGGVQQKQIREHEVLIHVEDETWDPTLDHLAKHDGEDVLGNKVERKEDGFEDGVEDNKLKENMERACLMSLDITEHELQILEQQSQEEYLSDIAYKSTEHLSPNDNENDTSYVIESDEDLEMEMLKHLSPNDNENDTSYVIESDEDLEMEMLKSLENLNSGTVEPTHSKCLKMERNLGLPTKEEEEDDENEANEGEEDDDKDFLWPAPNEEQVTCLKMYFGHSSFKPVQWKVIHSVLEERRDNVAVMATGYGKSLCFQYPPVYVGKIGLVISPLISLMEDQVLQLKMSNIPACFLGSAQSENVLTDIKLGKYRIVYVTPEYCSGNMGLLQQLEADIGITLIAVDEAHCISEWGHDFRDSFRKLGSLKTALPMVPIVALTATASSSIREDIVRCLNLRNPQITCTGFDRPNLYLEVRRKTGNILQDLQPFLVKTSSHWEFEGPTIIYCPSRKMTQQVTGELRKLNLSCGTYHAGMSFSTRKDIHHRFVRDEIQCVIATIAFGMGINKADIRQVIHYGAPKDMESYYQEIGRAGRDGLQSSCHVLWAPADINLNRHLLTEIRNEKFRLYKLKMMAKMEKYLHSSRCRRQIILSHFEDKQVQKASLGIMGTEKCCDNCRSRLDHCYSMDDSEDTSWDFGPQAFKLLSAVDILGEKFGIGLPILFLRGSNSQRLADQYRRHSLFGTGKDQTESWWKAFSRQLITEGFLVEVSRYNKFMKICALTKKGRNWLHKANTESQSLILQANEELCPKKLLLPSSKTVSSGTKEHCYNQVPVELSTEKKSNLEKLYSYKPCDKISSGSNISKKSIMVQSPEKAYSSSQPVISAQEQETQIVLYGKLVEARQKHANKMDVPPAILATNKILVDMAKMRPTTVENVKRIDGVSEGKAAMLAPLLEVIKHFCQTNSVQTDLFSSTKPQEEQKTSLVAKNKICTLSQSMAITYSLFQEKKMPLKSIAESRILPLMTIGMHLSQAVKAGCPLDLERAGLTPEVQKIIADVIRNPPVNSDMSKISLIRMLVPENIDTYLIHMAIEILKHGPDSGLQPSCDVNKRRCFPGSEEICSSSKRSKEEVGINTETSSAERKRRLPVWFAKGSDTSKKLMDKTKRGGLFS
# In all, about 360,000 compounds went through this assay and about 1,700 (0.47%) were called active. This list was built around the results that the source calls inconclusive (neither active nor inactive); the mix of calls is not that of the screen. Calls follow the shape of the dose curve; as a rule, active = well fitted inhibition curve with a large enough effect; inconclusive = small, poorly fitted or top-dose-only effect; inactive = no such curve, though single readings can be large or run the other way. A potency beside an inconclusive call is a rough fit, not a confirmed value.
# Target: Bifunctional 3'-5' exonuclease/ATP-dependent helicase WRN (Homo sapiens) (UniProt Q14191)
# Experiment: qHTS for Inhibitors of WRN Helicase; also: nearly all actives have a fitted effect of over 55% in size
# Conditions: WRN helicase unwinding, fluorescent forked duplex, kinetic; activity change, negative = inhibition: at 114 µM (top of the series) unless noted
# How it was run: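 Fluorescence dequenching readout, ex 525 nm/em 598 nm, kinetic mode: forked duplex DNA (100 nM final) with adjacent fluorophore and quencher unwound by WRN (20 nM final) with 2 mM ATP. Compound preincubation 15 min, room temperature.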
# % is scaled to controls: 0 for no effect and ±100 for the full control effect; potency is read from the fitted curve at half-maximal effect.
Structure (SMILES),Potency,"activity change, negative = inhibition"
O=C(O)c1cc(NN=C2c3ccccc3-c3ccccc32)ccc1Cl,"inconclusive: 56.2 µM [inhibitor, partial curve]",–
CCOC(=O)C1CCN(C(=O)c2ccccc2NS(=O)(=O)c2ccc(C)cc2)CC1,"inconclusive: 70.8 µM [inhibitor, single point]",–
O=C(Nc1ccccc1)c1ccc[nH]1,–,inactive: 2.93%
O=C(Nc1ccc(C2CC2(Cl)Cl)cc1)c1cccc([N+](=O)[O-])c1 (stereo unspecified),"inconclusive: 11.2 µM [inhibitor, full curve, poor fit]",–
Cc1ccc2nc(CCl)[n+]([O-])c(-c3ccccc3)c2c1,active: 79.4 µM,–
Cc1ccc(SC(CC(=O)c2ccc(C)cc2)C(=O)O)cc1 (stereo unspecified),"inconclusive: 44.7 µM [inhibitor, partial curve]",–
COc1ccccc1NC(=O)Cn1nnc(-c2ccccc2NC(=O)c2ccco2)n1,"inconclusive: 79.4 µM [inhibitor, partial curve]",–
O=S1(=O)C=C(Sc2nnc(-c3ccccc3)o2)c2ccccc21,"inconclusive: 44.7 µM [inhibitor, partial curve]",–
O=C1C2Sc3[nH]c(=O)sc3C(c3cc([N+](=O)[O-])ccc3O)C2C(=O)N1c1ccccc1 (stereo unspecified),"inconclusive: 15.8 µM [inhibitor, single point]",–
CC[N+]1(C)CCC(O)(/C=C/c2ccccc2)C(C(=O)/C=C/c2ccccc2)C1 (stereo unspecified),active: 11.2 µM,–
O=C(Nc1ccon1)C1CCN(S(=O)(=O)c2cccs2)CC1,–,inactive: 3.5%
Cc1ccccc1C(=O)OC1OC(=O)C(Cl)=C1Nc1ccc(C(=O)O)cc1 (stereo unspecified),"inconclusive: 79.4 µM [inhibitor, single point]",–
CCN1/C(=C/C=C/c2sc3ccccc3[n+]2CC)Sc2ccccc21,active: 39.8 µM,–
O=C(c1cc(-c2ccc(O)cc2)on1)N1CCN(c2ccccc2)CC1,–,inactive: -5.04%
N=C1S/C(=C\c2ccc(-c3ccccc3C(=O)O)o2)C(=O)N1c1ccc2c(c1)OCO2,"inconclusive: 21.2 µM [inhibitor, single point]",–
O=C(COC(=O)CSc1nnc(-c2ccc(Cl)cc2)o1)Nc1cc(Cl)cc(Cl)c1,"inconclusive: 28.2 µM [inhibitor, single point]",–
COc1cccc(NC(=O)CN(C)C(C)C(=O)N2CCCCC2)c1 (stereo unspecified),"inconclusive: 56.2 µM [inhibitor, partial curve, poor fit]",–
O=C1/C(=C/c2ccccc2)CN(C(=O)CCN2CCOCC2)C/C1=C\c1ccccc1,"inconclusive: 12.6 µM [inhibitor, partial curve]",–
O=C1c2ccccc2C(=O)N1CCSc1ncn[nH]1,–,inactive: -2.43%
Cc1nc2c(c(=O)n1CCC1=CCCCC1)c1nc3ccccc3nc1n2/N=C/c1ccco1,"inconclusive: 17.8 µM [inhibitor, partial curve]",–
COC(=O)COc1ccc(/C=N/NC(=O)c2ccc(N(Cc3ccccc3)S(C)(=O)=O)cc2)cc1,"inconclusive: 112 µM [inhibitor, partial curve, poor fit]",–
Cc1cccc(NC(=O)CCC(=O)c2cccs2)n1,"inconclusive: 56.2 µM [inhibitor, partial curve, poor fit]",–
Cc1ccc(-c2nn(-c3ccccc3)cc2C=C2C(=O)CC(C)(C)CC2=O)cc1,–,inactive: -33.5%
N=C1/C(=C/c2ccc(-c3cccc(C(=O)O)c3)o2)C(=O)N=C2SC=C(c3ccccc3)N12,active: 35.5 µM,–

Structure (SMILES),Potency,"activity change, negative = inhibition"
CN(C)c1ccc(N=Nc2ccc(C(=O)O)cc2)cc1,"inconclusive: 50.1 µM [inhibitor, partial curve]",–
COc1ccc(CCN2CC(C(=O)NCCc3ccc(F)cc3)CCC2=O)cc1 (stereo unspecified),–,inactive: 5.73%
COc1cccc(S(=O)(=O)NCc2ccc(C(=O)Nc3ccc(C)cc3)cc2)c1,–,inactive: -4.05%
COCN(C#N)c1nc(N(C)C)nc(N(C)C)n1,–,inactive: 7.18%
O=C(NCc1cccnc1)c1ccc2c(c1)C(=O)N(Cc1ccccc1)C2=O,"inconclusive: 44.7 µM [inhibitor, partial curve]",–
CCCCCCCCCCCNC(=O)c1ccoc1C,active: 50.1 µM,–
CCC(=O)Nc1ccc(NC(=S)NC(=O)c2cc3ccccc3o2)cc1,–,inactive: -9.88%
COC(=O)/C=C/COc1ccccc1[N+](=O)[O-],–,inactive: -2.32%
CCN(CC)c1ccc(/C=C/C(=O)c2ccc(Br)cc2)cc1,active: 22.4 µM,–
Cc1ccc(NC(=O)c2ccccc2NS(=O)(=O)c2ccc(Cl)s2)cc1,–,inactive: -16.6% [at 57.1 µM]
O=C(O)C1Nc2c(Cl)cc(Cl)c(Cl)c2C2C=CCC12 (stereo unspecified),active: 39.8 µM,–
N#C/C(=C\c1ccc(Sc2ccccc2)o1)c1nc2ccccc2[nH]1,"inconclusive: 22.4 µM [inhibitor, partial curve]",–
CCN(CC(=O)Nc1ccc2c(c1)OCCO2)CC(=O)Nc1ccccc1C(F)(F)F,"inconclusive: 17.8 µM [inhibitor, full curve]",–
O=C(NC1CCCCC1)c1cc2ccccc2cc1O,–,inactive: -16.3%
Cc1ccc(S(=O)(=O)N(C)C)cc1NC(=S)NC(C)CCCC(C)C (stereo unspecified),"inconclusive: 31.6 µM [inhibitor, single point]",–
Cc1nonc1C(=O)N/N=C/c1ccccc1,–,inactive: 13.5% [at 57.1 µM]
C=CCn1c(SCC(=O)NC23CC4CC(CC(C4)C2)C3)nc2cc(C(=O)O)ccc2c1=O,–,inactive: -2.86%
CCOC(=O)c1oc2ccccc2c1COC(=O)CNC(=O)c1ccccc1,"inconclusive: 31.6 µM [inhibitor, full curve]",–
CCNC(=O)/C(C#N)=C/c1c(N2CCN(c3ccc(OC)cc3)CC2)nc2c(C)cccn2c1=O,"inconclusive: 63.1 µM [inhibitor, partial curve, poor fit]",–
Cc1nc2ccccc2c2nc3ccccc3n12,–,inactive: -4.98%
Cc1ccccc1C(=O)N1CCC(C(=O)N(C)CCOc2ccccc2)CC1,"inconclusive: 89.1 µM [inhibitor, single point]",–
Cc1ccc(-n2c(O)c(C=Nc3cc(C)on3)c3ccccc3c2=O)c(C)c1,active: 50.1 µM,–
O=C(O)CSc1cc(NS(=O)(=O)c2ccc(Cl)cc2)c2ccccc2c1O,active: 12.6 µM,–
O=C(OCn1ncc(Br)c(Br)c1=O)c1ccccc1Cl,"inconclusive: 35.5 µM [inhibitor, partial curve]",–

Structure (SMILES),Potency,"activity change, negative = inhibition"
O=C(CCn1c(=O)oc2ccccc21)Nc1cccc([N+](=O)[O-])c1,"inconclusive: 50.1 µM [inhibitor, partial curve]",–
O=C(CC1C(=O)NCCN1CC1CCCCC1)NCc1cc(F)ccc1F (stereo unspecified),–,inactive: -33.6%
CC(C)c1ccc(Nc2nnc(SCC(=O)NCC3CCCO3)s2)cc1 (stereo unspecified),"inconclusive: 79.4 µM [inhibitor, single point]",–
CCOC(=O)C1=C(N)N(c2ccccc2)C(=O)C1,"inconclusive: 89.1 µM [inhibitor, single point]",–
CC(C)[C@H](CN1CCC[C@H]1CN1C(N)=NC[C@@H]1Cc1ccccc1)N1C[C@@H](Cc2ccccc2)N(CCc2ccc(Cl)c(Cl)c2)C1=N,"inconclusive: 100 µM [inhibitor, single point]",–
CC1Sc2ccc(S(=O)(=O)N3CCC(C(=O)Nc4ccc(Cl)cc4)CC3)cc2NC1=O (stereo unspecified),active: 79.4 µM,–
Cc1nc(C)c(-c2csc(Nc3ccc(C(=O)O)c(O)c3)n2)s1,–,inactive: -12.3%
O=C(NCc1cc2ccccc2[nH]1)c1ccccc1F,"inconclusive: 89.1 µM [inhibitor, single point]",–
NS(=O)(=O)c1ccc(O)c(N2C(=O)c3cccc4c(C(=O)O)ccc(c34)C2=O)c1,–,inactive: -11.7%
COc1ccc(NC(=O)c2ccc3c(c2)OCCO3)cc1OC,"inconclusive: 10 µM [inhibitor, partial curve]",–
Cc1ccn2c(=O)nc(SCC(=O)N3CCCCC3)nc2c1,"inconclusive: 79.4 µM [inhibitor, single point]",–
CCCCn1c(O)c(/C=C/C=C/C=Nc2ccccc2)sc1=S,–,inactive: -21.1%
CCOc1ncccc1C(=O)NNC(=O)c1cccc(S(=O)(=O)Nc2ccc(OC)cc2)c1,"inconclusive: 70.8 µM [inhibitor, partial curve]",–
O=C1C=C(c2ccc(-c3ccccc3)c(F)c2)C[C@@H](c2ccc(Cl)cc2)C1,"inconclusive: 100 µM [inhibitor, single point]",–
Cc1ccccc1S(=O)(=O)N1C(c2ccc(Cl)cc2)CC=C(C(=O)O)C1c1cccc(Cl)c1 (stereo unspecified),–,inactive: 2.62%
CC(=O)NCc1ccc(C(=O)CSc2nnc(-c3ccncc3)n2Cc2ccccc2)o1,"inconclusive: 50.1 µM [inhibitor, partial curve]",–
Cc1cc(C)nc(NN2C(=O)/C(=C/c3ccc(O)cc3)SC2=S)n1,"inconclusive: 56.2 µM [inhibitor, partial curve]",–
Cc1cc(N)n2ncc(-c3cccc(Br)c3)c2n1,–,inactive: -16%
Cc1cc(C)c2c(n1)sc1c(O)cc(=O)[nH]c12,"inconclusive: 11.2 µM [inhibitor, partial curve]",–
Cc1ccc(O)c(NC(=O)c2ccccc2-c2ccccc2C(=O)O)c1,"inconclusive: 70.8 µM [inhibitor, partial curve]",–
N#C/C(=C/c1cn(-c2ccccc2)nc1-c1cccc(OCc2ccc(F)cc2)c1)C(=O)NCCCn1ccnc1,"inconclusive: 28.2 µM [inhibitor, single point]",–
N#C/C(=C\c1ccc(-c2ccccc2Cl)o1)C(=O)Nc1nc2ccccc2s1,"inconclusive: 39.8 µM [inhibitor, single point]",–
N#CCC(=O)Nc1ccc(C(=O)OCC(=O)N2CCN(C(=O)c3ccco3)CC2)cc1,"inconclusive: 50.1 µM [inhibitor, partial curve]",–

# A different layout for 2 compounds above:
Structure (SMILES)	Potency	activity change, negative = inhibition
O=C(O)CSc1cc(NS(=O)(=O)c2ccc(Cl)cc2)c2ccccc2c1O	active: 12.6 µM	–
O=C(OCn1ncc(Br)c(Br)c1=O)c1ccccc1Cl	inconclusive: 35.5 µM [inhibitor, partial curve]	–
